Laboratory results published in article PMC3900656.

The chains behind the UniProt entries cited, without tags or fusion partners.
UniProt P01100: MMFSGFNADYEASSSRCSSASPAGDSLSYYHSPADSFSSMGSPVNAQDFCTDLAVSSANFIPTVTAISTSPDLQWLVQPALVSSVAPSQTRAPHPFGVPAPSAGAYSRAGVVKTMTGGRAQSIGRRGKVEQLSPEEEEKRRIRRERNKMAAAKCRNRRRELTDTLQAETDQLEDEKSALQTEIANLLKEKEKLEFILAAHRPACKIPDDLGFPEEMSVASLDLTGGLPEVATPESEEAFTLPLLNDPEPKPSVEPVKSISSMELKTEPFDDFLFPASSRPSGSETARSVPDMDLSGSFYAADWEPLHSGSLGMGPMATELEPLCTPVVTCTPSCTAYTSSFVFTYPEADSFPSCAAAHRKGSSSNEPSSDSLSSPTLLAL

Experiments:
[1] = biological target: c-Fos (human (endogenous in PCI13)) (UniProt P01100); test: affinity purification with mass spectrometry; RIPA lysate of COLXVI cells; c-Fos immunoprecipitated (µMACS Protein A/G MicroBeads), reducing SDS-PAGE, 58 kDa band excised, tryptic digest, nano-LC-MS/MS
[2] = biological target: c-Fos (human (endogenous in PCI13)) (UniProt P01100); test: affinity purification with mass spectrometry; RIPA lysate of mock control cells; c-Fos immunoprecipitated (µMACS Protein A/G MicroBeads), reducing SDS-PAGE, compared with COLXVI cells

B1: dyskerin (DKC1) (protein, UniProt O60832 1-514)
chain: MADAEVIILPKKHKKKKERKSLPEEDVAEIQHAEEFLIKPESKVAKLDTSQWPLLLKNFDKLNVRTTHYTPLACGSNPLKREIGDYIRTGFINLDKPSNPSSHEVVAWIRRILRVEKTGHSGTLDPKVTGCLIVCIERATRLVKSQQSAGKEYVGIVRLHNAIEGGTQLSRALETLTGALFQRPPLIAAVKRQLRVRTIYESKMIEYDPERRLGIFWVSCEAGTYIRTLCVHLGLLLGVGGQMQELRRVRSGVMSEKDHMVTMHDVLDAQWLYDNHKDESYLRRVVYPLEKLLTSHKRLVMKDSAVNAICYGAKIMLPGVLRYEDGIEVNQEIVVITTKGEAICMAIALMTTAVISTCDHGIVAKIKRVIMERDTYPRKWGLGPKASQKKLMIKQGLLDKHGKPTDSTPATWKQEYVDYSESAKKEVVAEVVKAPQVVAEAAKTAKRKRESESESDETPPAAPQLIKKEKKKSKKDKKAKAGLESGAEPGDGDSDTTKKKKKKKKAKEVELVSE
binding [1]: binds
binding [2]: binds weakly

These are yes or no findings as the source states them, for the method shown. In cells and extracts the contact can be indirect. A yes stands for co-enrichment or nearness to the bait. Other partners may have been found.
